Literature values as cited in US6471968B1, “Multifunctional nanodevice platform” (Regents of the University of Michigan, priority 2000, dated 2002).

Structure (SMILES): CC(=O)O[C@H]1C(=O)[C@@]2(C)[C@H]([C@H](OC(=O)c3ccccc3)[C@]3(O)C[C@H](OC(=O)[C@H](O)[C@@H](NC(=O)c4ccccc4)c4ccccc4)C(C)=C1C3(C)C)[C@]1(OC(C)=O)CO[C@@H]1C[C@@H]2O [paclitaxel]
- solubility in water: poorly soluble in water
